Measurements as given in patent US8003785B2 (Takeda Pharmaceutical Company Limited, priority 2008, dated 2011).

Amino acid sequences for entries named in this document (tags omitted).
UniProt P53350, whole entry: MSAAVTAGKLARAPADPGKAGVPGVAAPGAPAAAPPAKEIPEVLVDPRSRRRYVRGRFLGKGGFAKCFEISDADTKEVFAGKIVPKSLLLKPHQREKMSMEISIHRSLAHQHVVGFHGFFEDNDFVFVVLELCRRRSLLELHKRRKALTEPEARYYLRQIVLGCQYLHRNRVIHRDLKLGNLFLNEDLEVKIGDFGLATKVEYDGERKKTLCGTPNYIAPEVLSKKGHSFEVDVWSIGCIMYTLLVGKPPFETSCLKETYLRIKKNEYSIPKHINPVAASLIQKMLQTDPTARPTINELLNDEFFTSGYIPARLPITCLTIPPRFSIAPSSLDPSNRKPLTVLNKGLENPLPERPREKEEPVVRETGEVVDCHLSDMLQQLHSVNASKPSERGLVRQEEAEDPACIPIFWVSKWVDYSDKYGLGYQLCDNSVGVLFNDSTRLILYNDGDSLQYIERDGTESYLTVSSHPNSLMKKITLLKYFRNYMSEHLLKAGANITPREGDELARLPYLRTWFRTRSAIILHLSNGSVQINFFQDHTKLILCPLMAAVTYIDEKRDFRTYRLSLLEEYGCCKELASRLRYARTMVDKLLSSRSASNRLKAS

Biological target: T1, PLK1 (Homo sapiens, UniProt P53350)
T1 construct: Full-length, active GST-PLK1 is purified from Sf9 insect cells; made in house; host or cells: Sf9 insect cells
Experiment: Biochemical Characterization Assay: HTRF kinase assay, GST-PLK1 phosphorylation of GST-p53
Conditions: GST-PLK1, GST-p53 substrate, ATP
Procedure: Biochemical Characterization Assay
Full-length, active GST-PLK1 is purified from Sf9 insect cells, and full-length GST-p53 is purified from E. coli. Anti-phospho p53 antibody is from Cell Signaling Technology. Europium-conjugated anti-rabbit antibody is from PerkinElmer Life and Analytical Sciences. APC-conjugated anti-GST antibody is from Prozyme.
Six microliters of GST-PLK1 (3 ug/mL) in Kinase Assay Buffer are then added and the solution incubated at 37° C. for 35 minutes. Six microliters of solution containing 43 mM EDTA to stop the reaction and a 1:600 dilution of anti-phospho-p53 antibody in 20 mM HEPES pH 7, 50 mM NaCl, and 0.5 mg/mL BSA (Antibody Binding Buffer) are added and the solution incubated at 37° C. for 30 minutes. […] The HTRF signal is read on an Envision reader from PerkinElmer Life and Analytical Sciences.

COc1cc(C(=O)O)ccc1Nc1ncc2c(n1)N(C1CCCC1)CC(F)(F)C(=O)N2C [Example I-22, 4-(9-cyclopentyl-7,7-difluoro-5-methyl-6-oxo-6,7,8,9-tetrahydro-5H-pyrimido[4,5-b][1,4]diazepin-2-ylamino)-3-methoxy-benzoic acid]
IC50: 1 to 50 nM
